Results are given in words; binding and its absence hold for the method and conditions named. Some results given as binding are weak or reduced against the parent protein; the word gives no strength.
Biological target: T1, 重组人NEFL蛋白 (human) (UniProt P07196)
T1 sequence: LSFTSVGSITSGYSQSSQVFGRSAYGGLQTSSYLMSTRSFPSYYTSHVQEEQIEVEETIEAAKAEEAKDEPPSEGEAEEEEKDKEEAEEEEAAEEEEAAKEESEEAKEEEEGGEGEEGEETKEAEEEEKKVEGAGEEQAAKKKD
Test: double-antibody sandwich ELISA; 1H8 as capture, 2G10-biotin as detection, protein at 2000 pg/mL

B1: 兔单克隆抗体1H8 (antibody, V domains shown)
VH: QSLEESGGRLVTPGTPLTLTCAVSGIDLSRYGIDWVRQAPGKGLEWIGTVSAGGDSWYASWAKGRFTISKTSSTTVDLEVTSPTTEDTATYFCAKGATLNLWGQGTLVTVSS
VL: DPVLTQTPSSTSAAVGGTVTINCQSSQNVYGNNWLAWYQKKPGQSPKLLIISASSLPSGVPSRFKGSGSGTQFTLTISDLECDDAATYYCAGGYSGYIYTFGGGTEVVVKG
  binding: binds

B2: 兔单克隆抗体2G10 (antibody, V domains shown)
VH: QSLEESGGRLVTPGTRLTLTCTVSGFSLGRYAMGWVRQAPGKGLEWIGIINSYGTTYYASWAKGRFTISKTSTTVDLKITSPTTEDTATYFCARDGYEDYGDYYNAFDPWGPGTLVTVSS
VL: DVVMTQTPASVSEPVGGTVTIKCQASQSIGVTLAWYQQKPGQPPKLLIYKASNLASGVSSRFKGSRSGTEYTLTISDLECADAATYYCQCTWYGPSFVGAFGGGTEVVVKG
  binding: binds
